The test system of this assay is BDF1 mice, P388 leukemia ip, median survival T/C. In words: NCI In Vivo Anticancer Drug Screen. Data for tumor model P388 Leukemia (intraperitoneal) in B6D2F1 (BDF1) mice. The settings on record: T/C endpoint: median survival time, higher T/C = longer survival. The method, boiled down: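 Compound-treated tumour-bearing mice were compared with vehicle-treated controls. Survival was recorded, and the value is the treated-group measurement divided by the control-group measurement (T/C).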

[1] abbreviates: dose: 100.0 mg/kg/injection, schedule: Q01DX009 (ip), vehicle: saline with Tween-80.
[2] abbreviates: dose: 200.0 mg/kg/injection, schedule: Q01DX009 (ip), vehicle: saline with Tween-80.
Where [3] appears, read: dose: 50.0 mg/kg/injection, schedule: Q01DX001 (ip), vehicle: Klucel (hydroxypropylcellulose) (HPC).
[4] abbreviates: dose: 50.0 mg/kg/injection, schedule: Q01DX005 (ip), vehicle: Klucel (hydroxypropylcellulose) (HPC).
Where [5] appears, read: dose: 50.0 mg/kg/injection, schedule: Q01DX009 (ip), vehicle: Klucel (hydroxypropylcellulose) (HPC).
Where [6] appears, read: dose: 50.0 mg/kg/injection, schedule: Q04DX002 (ip), vehicle: Klucel (hydroxypropylcellulose) (HPC).
Setting [7] is: dose: 50.0 mg/kg/injection, schedule: Q04DX003 (ip), vehicle: Klucel (hydroxypropylcellulose) (HPC).
[8] abbreviates: dose: 100.0 mg/kg/injection, schedule: Q01DX005 (ip), vehicle: Klucel (hydroxypropylcellulose) (HPC).
[9] abbreviates: dose: 100.0 mg/kg/injection, schedule: Q01DX009 (ip), vehicle: Klucel (hydroxypropylcellulose) (HPC).
The mark [10] stands for this setting: dose: 100.0 mg/kg/injection, schedule: Q04DX002 (ip), vehicle: Klucel (hydroxypropylcellulose) (HPC).
[11] abbreviates: dose: 100.0 mg/kg/injection, schedule: Q04DX003 (ip), vehicle: Klucel (hydroxypropylcellulose) (HPC).
[12] abbreviates: dose: 200.0 mg/kg/injection, schedule: Q01DX001 (ip), vehicle: Klucel (hydroxypropylcellulose) (HPC).
Where [13] appears, read: dose: 200.0 mg/kg/injection, schedule: Q01DX005 (ip), vehicle: Klucel (hydroxypropylcellulose) (HPC).
The mark [14] stands for this setting: dose: 200.0 mg/kg/injection, schedule: Q01DX009 (ip), vehicle: Klucel (hydroxypropylcellulose) (HPC).
The mark [15] stands for this setting: dose: 200.0 mg/kg/injection, schedule: Q04DX002 (ip), vehicle: Klucel (hydroxypropylcellulose) (HPC).
Setting [16] is: dose: 200.0 mg/kg/injection, schedule: Q04DX003 (ip), vehicle: Klucel (hydroxypropylcellulose) (HPC).
Setting [17] is: dose: 400.0 mg/kg/injection, schedule: Q01DX001 (ip), vehicle: Klucel (hydroxypropylcellulose) (HPC).
[18] abbreviates: dose: 400.0 mg/kg/injection, schedule: Q01DX005 (ip), vehicle: Klucel (hydroxypropylcellulose) (HPC).
[19] abbreviates: dose: 400.0 mg/kg/injection, schedule: Q01DX009 (ip), vehicle: Klucel (hydroxypropylcellulose) (HPC).
The mark [20] stands for this setting: dose: 400.0 mg/kg/injection, schedule: Q04DX002 (ip), vehicle: Klucel (hydroxypropylcellulose) (HPC).
[21] abbreviates: dose: 400.0 mg/kg/injection, schedule: Q04DX003 (ip), vehicle: Klucel (hydroxypropylcellulose) (HPC).

The list shows only some results of the screen, not a fair sample: it gathers tests that were run many times, whatever their T/C, doses with no T/C, and many T/C values between a quarter and a half above the control. Other doses and runs of a compound stand elsewhere. T/C is the treated group as % of the vehicle group. Some doses have a count of surviving animals in place of a T/C: the source holds a T/C of zero for them, seemingly a mark for toxic or unscored doses. Some doses without a T/C left all or most animals alive at the check, yet need not have been tolerated: the source hardly ever lists a survival T/C far under the control, and the zero likely stands for such cases as well. Survivors were counted at the toxicity check, usually on the fifth day, unless a day is given; later deaths do not show. Schedules are NCI's codes, taken here to give the interval after Q, in days (D) or hours (H), and the number of doses after X. Some doses were run more than once; their values stand side by side, smallest first. For survival time, this PubChem deposit counts one and a half times the control or more as active, and values a quarter to a half above the control carry no call in these data; other NCI protocols may use other cut-offs. Some T/C values carry the count of animals alive at the toxicity check (mostly the fifth day); without a count, all were alive then. Additions like (4×) count equal records among those shown.

Consider `O=[N+]([O-])c1cc2no[n+]([O-])c2cc1N1CCOCC1`, for which the T/C (dose: 15.0 mg/kg/injection, schedule: Q01DX009 (ip), vehicle: saline with Tween-80) was 126 % of control. The survivor count (dose: 60.0 mg/kg/injection, schedule: Q01DX009 (ip), vehicle: saline with Tween-80) is 3 of 7.
In the case of `CCOC(=O)c1cnn(C(N)=S)c1N`, the survivor count is, setting by setting: under setting [1], 5 of 6; under setting [2], 4 of 6.
With `CC(=O)Oc1cccc2c1C(=O)c1c(OC(C)=O)cccc1C2=O`, under “dose: 6.25 mg/kg/injection, schedule: Q04DX003 (ip), vehicle: Klucel (hydroxypropylcellulose) (HPC)”, the T/C is 127 % of control.
For the compound `COC1OC(n2cnc3ncn(Cc4ccccc4)c3c2=N)C2OC(C)(C)OC12` (centres undefined), the T/C (dose: 50.0 mg/kg/injection, schedule: Q01DX001 (ip), vehicle: saline) is 130 % of control.
For `Nc1nnc[se]1`, the T/C (dose: 50.0 mg/kg/injection, schedule: Q01DX009 (ip), vehicle: saline) was 138 % of control. Further, the survivor count reads like this: under setting [1], 6 of 6; (dose: 100.0 mg/kg/injection, schedule: Q01DX009 (ip), vehicle: saline) 6 of 6; under setting [2], 6 of 6.
`CCC[CH2][Sn]([Cl])([Cl])[CH2]CCC`: the survivor count is on record as 3 of 6 (dose: 6.25 mg/kg/injection, schedule: Q01DX009 (ip), vehicle: saline with Tween-80); 0 of 6 (dose: 12.5 mg/kg/injection, schedule: Q01DX009 (ip), vehicle: saline with Tween-80); 0 of 6 (dose: 25.0 mg/kg/injection, schedule: Q01DX009 (ip), vehicle: saline with Tween-80); 0 of 6 (dose: 50.0 mg/kg/injection, schedule: Q01DX009 (ip), vehicle: saline with Tween-80); 0 of 6 under setting [1].
As for `CC(=O)[C@H]1CC[C@H]2[C@@H]3C[C@H](C)C4=CC(=O)CC[C@]4(C)[C@H]3C(=O)C[C@]12C`, the T/C is, setting by setting: under setting [3], 90, 93 (2×), 95, 96 (2×), 97 (4×), 99, 100, 101 (2×), 104 (4×), 105, 106, 107 (2×), 108 (2×), 110, 111, 112 % of control; under setting [4], 88 (2×), 89 [5 of 6 alive], 99, 100 (4×), 101 (2×), 102, 103 (3×), 104, 105, 106, 107 (2×), 108 (2×), 110 (3×), 111 (3×), 112, 113, 114 (2×), 116, 120, 121 % of control; under setting [5], 91, 92, 93, 94 (2×), 95 (2×), 96, 97 (3×), 98 (4×), 100, 101 (2×), 101 [2 of 3 alive], 104, 105 (2×), 106 (2×), 107 (3×), 111, 113, 118, 119, 119 [2 of 3 alive], 120, 148 % of control; under setting [6], 87 (2×), 92, 98, 99 (3×), 100 (6×), 102 (2×), 103, 105, 106 (4×), 108 (2×), 109, 111 (3×), 112 (2×), 113, 122 (2×), 123 % of control; under setting [7], 87, 87 [2 of 3 alive], 89, 90, 94, 95 (2×), 96, 97, 98 (2×), 99 (4×), 100 (3×), 101, 102 [5 of 6 alive], 103, 104 (2×), 105 (2×), 106, 107, 110 (2×), 114, 118, 120, 125, 134 % of control; (dose: 100.0 mg/kg/injection, schedule: Q01DX001 (ip), vehicle: Klucel (hydroxypropylcellulose) (HPC)) 87, 88, 90, 91, 92, 95, 96 (2×), 97, 98 (3×), 100 (2×), 101 (3×), 103 (2×), 104 (2×), 106, 107, 110, 111, 113, 115, 117 % of control. For the same compound, the T/C reads like this: under setting [8], 89, 94 (2×), 95, 99, 99 [5 of 6 alive], 100, 100 [5 of 6 alive], 101, 102 (2×), 104 (3×), 105 (3×), 107 (2×), 107 [4 of 6 alive], 108, 109, 109 [5 of 6 alive], 110, 111, 112 (2×), 113 (2×), 115, 118, 121, 123, 125 % of control; under setting [9], 87, 88, 90, 91, 92, 94, 95 (3×), 97 (2×), 98, 99, 100 (2×), 101 (2×), 102, 103 (3×), 105, 106, 107 (2×), 109 (2×), 110 (3×), 111 (2×), 116, 122, 131 % of control; under setting [10], 89, 92 (4×), 93, 95 (2×), 96, 97, 98 (3×), 100 (2×), 101 (3×), 102, 103 (2×), 104 (2×), 105, 107 (2×), 108 (2×), 111, 112, 113, 116, 125 % of control; under setting [11], 87, 91, 92, 93 (2×), 94 (2×), 96 (4×), 97 (2×), 98, 99, 100 (3×), 102 (3×), 103 (3×), 104, 105, 106, 107 (2×), 108, 109 (2×), 110, 114 [5 of 6 alive], 118 % of control; under setting [12], 88, 93, 94, 95, 96 (2×), 97 (2×), 98, 99 (2×), 100 (2×), 101 (4×), 102 (2×), 103 (2×), 107, 108 (2×), 110 (2×), 113 % of control; under setting [13], 89, 91, 95, 98, 99 (3×), 100, 101 (2×), 102, 103 (2×), 104, 107 (4×), 108 (4×), 109, 110 (4×), 111 (2×), 113, 115, 122 % of control. Also, the T/C under setting [14] was 87, 88, 89, 92 (2×), 94, 95, 97 [2 of 3 alive], 98 (4×), 99 (2×), 99 [2 of 3 alive], 100, 102 (2×), 105 (2×), 106, 106 [4 of 6 alive], 110 (3×), 111 (2×), 113 (2×), 118 (2×), 150 % of control; the T/C under setting [15] was 89, 92, 94, 98, 99 (2×), 100 (2×), 102 (2×), 103 (3×), 104 (2×), 105, 106 (3×), 108 [2 of 3 alive], 109, 111 (4×), 113 (2×), 116 (2×), 119, 120, 123, 125 % of control; the T/C under setting [16] is 87, 89 (2×), 92, 98 [5 of 6 alive], 100 (4×), 101 (2×), 102 (2×), 103 (3×), 104, 105 (5×), 106, 107 (2×), 108, 109 (2×), 110 (2×), 112, 114, 115, 121 % of control; the T/C under setting [17] was 89, 90, 92, 93, 95 [5 of 6 alive], 97, 100 (3×), 101 (2×), 102, 103, 104, 105, 106 (3×), 107 (2×), 108, 110, 112 (3×), 120 % of control; the T/C under setting [18] was 91 [4 of 6 alive], 93 (2×), 94 [4 of 6 alive], 97 [4 of 6 alive], 98, 99 (2×), 100, 104, 105, 107 (2×), 107 [5 of 6 alive], 108 [2 of 3 alive], 109, 110, 111 (2×), 111 [4 of 6 alive], 115, 115 [5 of 6 alive], 116, 119, 125 % of control; the T/C under setting [19] was 86, 87, 88, 89 (2×), 89 [5 of 6 alive], 92, 95, 100, 103, 106 (2×), 107, 108 (2×), 110, 111 [4 of 6 alive], 120, 120 % of control [5 of 6 alive]. In addition, the T/C is 88, 91 [2 of 3 alive], 95 [4 of 6 alive], 96, 98, 99, 101, 102, 103 (2×), 104, 105 [4 of 6 alive], 106, 106 [5 of 6 alive], 107 (2×), 108 (2×), 116 [5 of 6 alive], 117, 119, 125 % of control under setting [20] and 88 [5 of 6 alive], 89, 94, 96, 97 [2 of 3 alive], 98, 99 (2×), 100, 100 [2 of 3 alive], 100 [5 of 6 alive], 103 (2×), 104, 105 [4 of 6 alive], 106, 107, 108 [2 of 3 alive], 109, 110 (2×), 110 [5 of 6 alive], 111, 112 (2×), 114 [4 of 6 alive], 115, 116, 120, 121, 127, 129 % of control under setting [21]. The survivor count under setting [3] is reported as 5 of 6; the survivor count under setting [4] is 3 of 3; the survivor count under setting [5] was 5 of 6 and 3 of 3; the survivor count under setting [6] was 6 of 6; the survivor count under setting [7] was 3 of 3 and 6 of 6; the survivor count under setting [8] is 6 of 6. In addition, the survivor count reads like this: under setting [9], 3 of 3; under setting [10], 6 of 6; under setting [11], 3 of 3; under setting [12], 6 of 6; under setting [13], 2 of 6, 3 of 3, 6 of 6; under setting [14], 3 of 3. The survivor count reads like this: under setting [15], 6 of 6; under setting [16], 3 of 3 and 6 of 6; under setting [17], 0 of 3 and 6 of 6; under setting [18], 0 of 3, 1 of 3, 2 of 6, 5 of 6, 6 of 6; under setting [19], 0 of 3, 0 of 6, 1 of 6, 2 of 6, 3 of 6, 2 of 3, 3 of 3; under setting [20], 0 of 3, 1 of 6, 1 of 3, 2 of 6, 3 of 6, 2 of 3, 3 of 3, 6 of 6. In addition, the survivor count under setting [21] is recorded as 3 of 6, 3 of 3, 6 of 6.

These data come from PubChem BioAssay AID328 (DTP/NCI, 2004).
